In the supplement of paper PMC6411743 one finds NP40-soluble protein abundance data, which are given here for 16 targets.

Amino acid sequences for entries named in this document (tags omitted). A change or cut given only in a name is not applied to a line headed by its entry.
UniProt O95067, whole entry, looked up: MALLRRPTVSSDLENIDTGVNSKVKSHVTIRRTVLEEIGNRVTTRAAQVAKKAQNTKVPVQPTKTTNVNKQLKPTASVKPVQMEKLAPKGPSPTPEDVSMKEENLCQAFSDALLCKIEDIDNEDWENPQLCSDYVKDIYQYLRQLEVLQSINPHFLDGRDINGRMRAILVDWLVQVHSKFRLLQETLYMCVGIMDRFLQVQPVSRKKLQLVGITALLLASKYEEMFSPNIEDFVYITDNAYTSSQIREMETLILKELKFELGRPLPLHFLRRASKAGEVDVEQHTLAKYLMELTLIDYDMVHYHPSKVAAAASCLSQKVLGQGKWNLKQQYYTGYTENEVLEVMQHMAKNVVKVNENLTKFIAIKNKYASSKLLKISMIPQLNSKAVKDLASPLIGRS
UniProt Q9UG56: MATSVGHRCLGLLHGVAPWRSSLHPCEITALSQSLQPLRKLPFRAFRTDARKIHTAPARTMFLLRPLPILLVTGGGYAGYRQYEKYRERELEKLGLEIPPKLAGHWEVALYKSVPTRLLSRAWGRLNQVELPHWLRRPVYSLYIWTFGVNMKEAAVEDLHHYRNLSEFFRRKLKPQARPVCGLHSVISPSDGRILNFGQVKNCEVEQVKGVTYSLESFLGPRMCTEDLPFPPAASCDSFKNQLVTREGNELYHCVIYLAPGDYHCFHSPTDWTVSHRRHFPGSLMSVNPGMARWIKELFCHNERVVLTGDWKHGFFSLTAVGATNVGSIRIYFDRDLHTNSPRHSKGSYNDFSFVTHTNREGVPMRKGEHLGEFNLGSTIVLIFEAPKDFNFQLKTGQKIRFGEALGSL
UniProt O15078: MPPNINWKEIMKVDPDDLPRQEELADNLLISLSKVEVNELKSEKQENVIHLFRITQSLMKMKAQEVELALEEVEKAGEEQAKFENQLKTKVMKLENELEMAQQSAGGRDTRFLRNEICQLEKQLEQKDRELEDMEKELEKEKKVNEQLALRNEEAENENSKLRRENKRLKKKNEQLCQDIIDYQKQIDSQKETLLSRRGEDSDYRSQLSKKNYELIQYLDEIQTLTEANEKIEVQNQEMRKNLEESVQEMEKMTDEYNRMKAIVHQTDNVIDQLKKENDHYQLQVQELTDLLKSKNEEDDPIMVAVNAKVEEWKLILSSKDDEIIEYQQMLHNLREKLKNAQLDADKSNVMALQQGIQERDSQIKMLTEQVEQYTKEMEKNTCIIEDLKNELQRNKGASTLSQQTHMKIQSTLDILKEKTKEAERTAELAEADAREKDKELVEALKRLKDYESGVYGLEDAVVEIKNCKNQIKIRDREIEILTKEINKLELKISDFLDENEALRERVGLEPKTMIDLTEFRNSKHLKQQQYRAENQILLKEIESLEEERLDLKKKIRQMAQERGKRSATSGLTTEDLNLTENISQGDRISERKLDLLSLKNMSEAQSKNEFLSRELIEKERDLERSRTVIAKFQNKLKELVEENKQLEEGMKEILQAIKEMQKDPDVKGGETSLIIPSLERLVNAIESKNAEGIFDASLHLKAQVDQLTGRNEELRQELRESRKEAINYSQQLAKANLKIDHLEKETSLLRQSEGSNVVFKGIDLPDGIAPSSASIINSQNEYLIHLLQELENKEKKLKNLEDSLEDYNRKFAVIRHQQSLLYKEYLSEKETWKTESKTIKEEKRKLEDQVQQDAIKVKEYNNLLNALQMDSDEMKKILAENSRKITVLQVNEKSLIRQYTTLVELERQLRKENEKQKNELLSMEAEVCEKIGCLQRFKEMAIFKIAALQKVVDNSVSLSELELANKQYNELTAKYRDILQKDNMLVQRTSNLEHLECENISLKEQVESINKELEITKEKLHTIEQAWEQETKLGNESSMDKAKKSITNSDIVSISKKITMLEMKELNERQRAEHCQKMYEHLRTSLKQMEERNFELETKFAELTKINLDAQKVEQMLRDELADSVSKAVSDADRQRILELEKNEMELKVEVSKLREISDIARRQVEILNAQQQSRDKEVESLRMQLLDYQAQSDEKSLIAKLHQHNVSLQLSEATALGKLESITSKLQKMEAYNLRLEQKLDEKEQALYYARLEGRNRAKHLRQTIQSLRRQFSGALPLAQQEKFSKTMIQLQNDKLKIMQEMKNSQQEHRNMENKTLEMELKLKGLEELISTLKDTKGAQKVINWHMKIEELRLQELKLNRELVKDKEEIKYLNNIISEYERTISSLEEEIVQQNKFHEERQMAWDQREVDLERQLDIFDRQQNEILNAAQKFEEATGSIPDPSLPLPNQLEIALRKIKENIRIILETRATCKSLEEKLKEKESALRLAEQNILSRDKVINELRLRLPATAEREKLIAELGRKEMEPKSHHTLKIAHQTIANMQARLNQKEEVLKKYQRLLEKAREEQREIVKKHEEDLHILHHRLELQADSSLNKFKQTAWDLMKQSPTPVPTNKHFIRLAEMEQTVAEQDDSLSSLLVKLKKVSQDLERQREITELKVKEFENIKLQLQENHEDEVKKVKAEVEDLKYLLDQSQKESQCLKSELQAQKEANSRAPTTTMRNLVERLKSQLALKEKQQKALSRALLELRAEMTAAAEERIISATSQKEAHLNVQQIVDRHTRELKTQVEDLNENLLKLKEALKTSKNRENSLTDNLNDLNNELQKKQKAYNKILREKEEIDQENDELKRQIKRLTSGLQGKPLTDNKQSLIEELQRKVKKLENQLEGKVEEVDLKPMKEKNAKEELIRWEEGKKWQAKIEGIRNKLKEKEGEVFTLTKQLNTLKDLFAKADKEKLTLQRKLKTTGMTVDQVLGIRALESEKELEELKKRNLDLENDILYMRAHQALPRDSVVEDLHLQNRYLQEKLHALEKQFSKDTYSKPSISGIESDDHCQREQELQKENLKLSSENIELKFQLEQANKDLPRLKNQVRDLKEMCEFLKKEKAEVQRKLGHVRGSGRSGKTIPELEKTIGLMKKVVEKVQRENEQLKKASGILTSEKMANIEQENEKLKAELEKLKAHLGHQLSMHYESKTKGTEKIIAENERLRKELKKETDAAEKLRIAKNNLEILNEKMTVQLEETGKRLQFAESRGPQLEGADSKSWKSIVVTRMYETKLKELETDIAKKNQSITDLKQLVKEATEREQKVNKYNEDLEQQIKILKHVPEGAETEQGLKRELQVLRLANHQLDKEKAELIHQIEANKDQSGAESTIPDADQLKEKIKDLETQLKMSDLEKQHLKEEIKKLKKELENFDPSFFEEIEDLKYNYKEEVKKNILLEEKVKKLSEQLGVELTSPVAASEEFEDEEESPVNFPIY
UniProt Q8IUR7, whole entry: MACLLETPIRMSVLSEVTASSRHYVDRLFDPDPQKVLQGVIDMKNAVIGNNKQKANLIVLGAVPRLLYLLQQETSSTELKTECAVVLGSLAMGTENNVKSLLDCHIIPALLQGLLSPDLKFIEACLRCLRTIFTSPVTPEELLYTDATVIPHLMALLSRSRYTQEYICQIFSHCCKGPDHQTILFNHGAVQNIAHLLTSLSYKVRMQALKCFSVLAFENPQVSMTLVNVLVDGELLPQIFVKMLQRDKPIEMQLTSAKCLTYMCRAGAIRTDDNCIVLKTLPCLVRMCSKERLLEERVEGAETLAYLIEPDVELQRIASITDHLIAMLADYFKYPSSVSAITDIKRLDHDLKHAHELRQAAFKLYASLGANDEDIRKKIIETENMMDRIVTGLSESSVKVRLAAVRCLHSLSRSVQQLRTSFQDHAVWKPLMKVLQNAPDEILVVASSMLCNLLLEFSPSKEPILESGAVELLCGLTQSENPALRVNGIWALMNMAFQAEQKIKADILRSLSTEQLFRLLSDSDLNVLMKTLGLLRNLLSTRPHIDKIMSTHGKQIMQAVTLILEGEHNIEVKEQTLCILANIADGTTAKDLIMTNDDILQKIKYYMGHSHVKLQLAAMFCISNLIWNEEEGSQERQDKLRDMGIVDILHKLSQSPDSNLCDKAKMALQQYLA
UniProt Q96N67: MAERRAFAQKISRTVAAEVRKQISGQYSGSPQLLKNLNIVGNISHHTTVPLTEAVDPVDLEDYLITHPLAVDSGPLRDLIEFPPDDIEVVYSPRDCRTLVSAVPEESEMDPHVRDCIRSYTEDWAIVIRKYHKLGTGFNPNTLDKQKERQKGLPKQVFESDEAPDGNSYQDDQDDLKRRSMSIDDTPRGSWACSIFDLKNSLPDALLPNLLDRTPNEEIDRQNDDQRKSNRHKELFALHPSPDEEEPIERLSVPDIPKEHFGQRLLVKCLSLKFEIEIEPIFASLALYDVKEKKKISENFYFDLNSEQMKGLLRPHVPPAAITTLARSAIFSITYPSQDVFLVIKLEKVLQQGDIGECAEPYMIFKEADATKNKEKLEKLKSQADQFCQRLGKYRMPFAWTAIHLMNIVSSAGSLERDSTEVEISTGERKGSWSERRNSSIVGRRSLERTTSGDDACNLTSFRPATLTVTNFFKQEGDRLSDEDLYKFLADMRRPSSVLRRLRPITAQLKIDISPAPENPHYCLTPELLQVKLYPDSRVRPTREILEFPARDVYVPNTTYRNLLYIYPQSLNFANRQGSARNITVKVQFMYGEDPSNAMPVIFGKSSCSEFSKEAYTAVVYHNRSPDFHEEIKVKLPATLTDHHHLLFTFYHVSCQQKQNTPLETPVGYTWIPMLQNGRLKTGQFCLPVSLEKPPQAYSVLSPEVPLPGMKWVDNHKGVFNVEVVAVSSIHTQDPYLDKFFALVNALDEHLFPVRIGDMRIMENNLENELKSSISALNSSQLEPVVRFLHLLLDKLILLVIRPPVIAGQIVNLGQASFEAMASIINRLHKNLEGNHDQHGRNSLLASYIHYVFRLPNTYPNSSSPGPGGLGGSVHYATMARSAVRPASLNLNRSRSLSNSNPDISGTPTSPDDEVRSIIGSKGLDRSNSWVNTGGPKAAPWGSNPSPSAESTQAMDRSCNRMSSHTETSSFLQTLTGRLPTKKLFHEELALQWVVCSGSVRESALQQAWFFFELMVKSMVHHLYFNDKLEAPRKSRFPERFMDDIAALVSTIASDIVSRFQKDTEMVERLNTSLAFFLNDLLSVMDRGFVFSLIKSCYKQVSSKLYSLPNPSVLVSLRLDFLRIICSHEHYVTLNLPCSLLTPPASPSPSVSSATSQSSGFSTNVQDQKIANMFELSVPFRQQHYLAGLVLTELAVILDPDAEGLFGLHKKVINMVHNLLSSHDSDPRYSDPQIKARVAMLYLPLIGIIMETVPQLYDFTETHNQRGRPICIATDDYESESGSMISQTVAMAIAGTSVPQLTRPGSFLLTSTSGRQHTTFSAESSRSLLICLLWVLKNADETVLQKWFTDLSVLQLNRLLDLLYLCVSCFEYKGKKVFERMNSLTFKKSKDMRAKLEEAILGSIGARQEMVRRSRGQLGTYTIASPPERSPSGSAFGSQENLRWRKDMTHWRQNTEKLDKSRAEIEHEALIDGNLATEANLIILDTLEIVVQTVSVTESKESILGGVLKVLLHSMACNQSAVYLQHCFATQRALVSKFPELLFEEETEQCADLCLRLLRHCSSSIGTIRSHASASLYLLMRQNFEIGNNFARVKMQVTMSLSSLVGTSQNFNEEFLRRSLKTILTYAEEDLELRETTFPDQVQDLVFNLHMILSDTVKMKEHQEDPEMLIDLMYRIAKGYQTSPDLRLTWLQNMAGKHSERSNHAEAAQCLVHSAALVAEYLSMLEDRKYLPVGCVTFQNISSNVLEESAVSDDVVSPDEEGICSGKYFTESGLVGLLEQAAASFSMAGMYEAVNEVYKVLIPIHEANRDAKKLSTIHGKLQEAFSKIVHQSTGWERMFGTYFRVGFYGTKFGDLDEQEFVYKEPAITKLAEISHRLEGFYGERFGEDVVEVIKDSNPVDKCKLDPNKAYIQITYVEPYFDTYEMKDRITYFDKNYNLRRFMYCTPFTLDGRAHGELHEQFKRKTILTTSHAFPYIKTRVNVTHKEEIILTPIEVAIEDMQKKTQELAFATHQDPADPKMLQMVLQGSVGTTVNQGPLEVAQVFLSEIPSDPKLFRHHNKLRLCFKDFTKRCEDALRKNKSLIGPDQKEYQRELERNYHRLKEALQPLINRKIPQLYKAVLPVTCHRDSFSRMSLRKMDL
UniProt Q08722, whole entry: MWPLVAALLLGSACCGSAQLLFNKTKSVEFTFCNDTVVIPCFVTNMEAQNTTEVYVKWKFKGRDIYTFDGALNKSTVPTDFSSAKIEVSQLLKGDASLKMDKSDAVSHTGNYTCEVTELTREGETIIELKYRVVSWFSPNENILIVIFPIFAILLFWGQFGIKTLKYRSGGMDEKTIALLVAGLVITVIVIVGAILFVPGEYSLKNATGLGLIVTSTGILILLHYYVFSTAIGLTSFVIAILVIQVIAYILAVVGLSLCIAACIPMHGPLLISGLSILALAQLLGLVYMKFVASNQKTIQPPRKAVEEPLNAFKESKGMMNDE

± gives the standard deviation of the averaged measurements. Only a part is listed here, and it is no random draw. Most entries show no effect beyond the scatter of the controls.

Compound in the test: Nc1ncnc2c1ncn2[C@@H]1O[C@H](COP(=O)(O)OP(=O)(O)OP(=O)(O)O)[C@@H](O)[C@H]1O [adenosine triphosphate]
Kind of test: NP40-soluble protein abundance relative to vehicle (solubility fold change) (ratio); higher = more soluble protein in presence of ATP. Put shortly:
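Data come from three independent experiments in which Dounce-homogenised Jurkat crude lysate was treated at eight concentrations from 0.1 to 10 mM. Treatment ran 10 min at room temperature and then 3 min at 37 °C, after which 0.8% NP40 and benzonase were added for 60 min at 4 °C before ultracentrifugation. The supernatant underwent TMT labelling and LC-MS/MS, and vsn-normalised intensities were expressed as fold change against the detergent-processed vehicle in each replicate.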

In the case of “J3QS41 and related entries (UniProt P42694)”, the NP40-soluble protein abundance (concentration: 0.1mM) was 1.04 ± 0.035 and the NP40-soluble protein abundance (concentration: 0.5mM) turned out to be 1.01 ± 0.041.

Consider “K7EK00 and related entries (UniProt Q96ND0)”, for which the NP40-soluble protein abundance runs as follows: (concentration: 0.1mM) 0.904 ± 0.038; (concentration: 0.5mM) 0.913 ± 0.039.

As for “H7C285 and related entries (UniProt O95858)”, the NP40-soluble protein abundance by setting is: (concentration: 0.1mM) 1.07 ± 0.12; (concentration: 0.5mM) 1.05 ± 0.12.

As to “H1UBN3 and related entries (UniProt O95067+H1UBN3)”, the NP40-soluble protein abundance runs as follows: (concentration: 0.1mM) 0.996 ± 0.089; (concentration: 0.5mM) 0.955 ± 0.084.

On to “K7EQJ5 and related entries (UniProt P62841)”, for which the NP40-soluble protein abundance (concentration: 0.1mM) came to 0.928 ± 0.15 and the NP40-soluble protein abundance (concentration: 0.5mM) is 0.903 ± 0.12.

Take “K7EPJ5 and related entries (UniProt O60291)”: the NP40-soluble protein abundance (concentration: 0.1mM) amounted to 0.921 ± 0.044 and the NP40-soluble protein abundance (concentration: 0.5mM) was 0.893 ± 0.067.

On to “H0Y7P7 and related entries (UniProt Q9UG56)”, for which the NP40-soluble protein abundance turned out to be 1.04 ± 0.055 (concentration: 0.1mM) and 0.924 ± 0.063 (concentration: 0.5mM).

Take “J3KNF5 and related entries (UniProt O15078)”: the NP40-soluble protein abundance by setting is: (concentration: 0.1mM) 1.01 ± 0.013; (concentration: 0.5mM) 0.966 ± 0.049.

With “G5E9V6 and related entries (UniProt Q8IUR7)”, the NP40-soluble protein abundance stood at 0.944 ± 0.058 (concentration: 0.1mM) and 0.997 ± 0.075 (concentration: 0.5mM).

Consider “H0Y7L2 and related entries (UniProt Q96N67)”, for which the NP40-soluble protein abundance is, setting by setting: (concentration: 0.1mM) 1.06 ± 0.048; (concentration: 0.5mM) 1.15 ± 0.037.

For “I3VM54 and related entries (UniProt Q9Y2K7)”, the NP40-soluble protein abundance runs as follows: (concentration: 0.1mM) 1.06 ± 0.051; (concentration: 0.5mM) 1.16 ± 0.043.

On to “K7ENF0 and related entries (UniProt O43776)”, for which the NP40-soluble protein abundance reads like this: (concentration: 0.1mM) 1.02 ± 0.055; (concentration: 0.5mM) 1 ± 0.06.

For the target “J3QQ67 and related entries (UniProt Q07020)”, the NP40-soluble protein abundance is, setting by setting: (concentration: 0.1mM) 0.969 ± 0.093; (concentration: 0.5mM) 1.04 ± 0.2.

On to “H0YC40 and related entries (UniProt Q08722)”, for which the NP40-soluble protein abundance (concentration: 0.1mM) was 0.907 ± 0.032 and the NP40-soluble protein abundance (concentration: 0.5mM) is 0.866 ± 0.086.

Turning to “I3L1K6 and related entries (UniProt P12829)”, the NP40-soluble protein abundance was 0.925 ± 0.17 (concentration: 0.1mM) and 0.861 ± 0.17 (concentration: 0.5mM).

As to UniProt H7C1Q1, the NP40-soluble protein abundance reads like this: (concentration: 0.1mM) 0.947 ± 0.033; (concentration: 0.5mM) 1.07 ± 0.083.
